This data set in a line: peptide synthesis. The following applies: late stage modification step.

This note sets out measurements from patent publication US8329644B2 (Novacta Biosystems Limited, priority 2007, dated 2012).

In turn, “Deoxy-Actagardine B [tris(hydroxymethyl)methylamine]monocarboxamide” had a step yield of 69%. Then “Deoxyactagardine B (N,N-bis(2-hydroxyethyl)ethylene diamine) monocarboxamide”, with 48%.
